Experimental data taken from paper PMC10163288.
The list shows a part of the results.

B1: il2ra_site1_1z92_sap_20_mot_22370d59370c406a0c205a431f537cfa_0001_000000027_0001_1_14_H_._HHH_b2_07892_af2_0001_0000400011_0000001_0_0001_af2pred_0001_af2pred_1 (protein)
chain: SSSSSSERNARIIVRILVELANLSEEQEEELRELAEELVKRGYSFEQIARILHELAMKLASSSSS
B2: il2ra_site1_3nfp_normal_mot_HHH_b1_05462_000000101_0001_1_15_H_._HHH_b2_00323_af2_0001_0000400024_0000001_1 (protein)
chain: SSSSSEEEREVEELLEEAKRLLEEGNFEEAVKVAEEAMKVAARANDDELDELIQEFVQKASSSSS
B3: il2ra_site2_3nfp_normal_mot_HHH_b1_04622_000000276_0001_1_16_H_._HHH_b2_06681_af2_0001_0000900032_0000001_0 (protein)
chain: SSSSDEADLEAYELLEEALELIRNGNPEEAEEVLKEVKELAERHNNRVLRRSVETLEELLSSSSS
B4: il2ra_site1_3nfp_normal_mot_HHH_b2_05589_af2_000000178_0001_1_18_H_._HHH_b1_05025_af2_0001_0000200005_0000001_0 (protein)
chain: SSSSDTEEALRIDREAWEVRRELQERGNEEEAHELSRLAFELLRHGDPRIAEEIEELLKKLSSSS
B5: il2ra_site2_2erj_sap_24_mot_HHH_b1_07975_000000000_0001_41_57_H_._HHH_b1_08466_af2_0001_0000800020_0000001_0_0001_af2pred_0001_1_af2pred_swapped (protein)
chain: SSSSSEEEEELKEFIEELVREFGLSEEVQKKLEALARNALEEGIDEEAIKLFLKLLAEKTSSSSS
B6: il2ra_site2_3nfp_normal_mot_HHH_b2_03679_000000086_0001_41_56_H_._HHH_b2_07687_0001_0000300013_0000001_0 (protein)
chain: SSSSSSDEAEEYVRAAIELAKDAEDPEQARRVLELALKLARSINDPELVEEIEELLEELSSSSSS
B7: il2ra_site1_2b5i_normal_mot_ems_3hM_3687_af2_000000248_0001_45_64_H_._HHH_b1_00736_af2_0001_0000600021_0000001_0_af2pred_dldesign_0_af2pred (protein)
chain: SSSSSSKREEIERLVAEAERLKAAGRYREALKALEEAKKLADELNDEEKVEEIERLAKELSSSSS
B8: il2ra_site2_3nfp_sap_18_mot_HHH_b2_00232_000000252_0001_23_39_H_._HHH_b1_05163_0001_0000100002_0000001_0_0001 (protein)
chain: SDEWEKRLAEMMLEWAEFIAKDISNDELREEAERLVEEAKEIDDPEEARRVAARVALIAAEVLKS
B9: il2ra_site1_3nfp_sap_14_mot_HHH_b1_01231_af2_000000247_0001_40_57_H_._HHH_b2_07537_af2_0001_0000400015_0000001_0_0001_af2pred_0001_af2pred_swapped (protein)
chain: SSSSTELAEELEKLHREIEEAAKEGDEELVRELLERAEEVAKEAGSEHAQRSLEILAKLFSSSSS
B10: il2ra_site1_3nfp_normal_mot_HHH_b2_02220_000000195_0001_38_52_H_._HEEHE_2417_0001_0000100002_0000001_0 (protein)
chain: DEEERVQRIVEWLAKLAGVPSVEVSVHNGEIHVEINGDDRAAKLLEKALEEAARRAGVPIHVEVE
B11: il2ra_site2_2erj_normal_mot_407c3bcab6c065c9e69fee805be8b34b_0001_000000085_0001_19_34_H_._HHH_b2_08156_0001_0000100002_0000001_0_af2pred_0001_1_af2pred_swapped (protein)
chain: SSSSSDEEEVERLLEEAKELRKEGNPEEALAAMLEALEIALRNDNEELERKIRETRLRLHSSSSS
B12: il2ra_site2_2erj_normal_mot_HHH_b1_02713_af2_000000038_0001_1_19_H_._HHH_b2_07325_0001_0000300007_0000001_1 (protein)
chain: SSSSDIEEALIRHALLTAKLLLEEGNPREAEQAVRSAIEYAEFANDEELLEEARKLLEEIGSSSS
B13: il2ra_site1_1z92_sap_17_mot_c66c727fe7b11027095aa3ef302aaf37_0001_000000167_0001_38_52_H_._665b9007e6d0b9979c9b0c82f83b8fcc_0001_0001_0000200023_0000001_0_0001 (protein)
chain: SSSSDSRERIEELAEFLARDIKMTGNPWARRLLELLLEKAEKLGDEELREIIEQLLEELRSSSSS
B14: il2ra_site2_2erj_sap_23_mot_6c2800a769814540b5b47941e710ff28_0001_000000197_0001_35_49_H_._HHH_b1_06377_0001_0000400040_0000001_0_0001 (protein)
chain: SSSSDEVEELLEEAKRLLEEGNPEEALKVLWEAFRLAFERGDWELSREIFELAEEIQRLLTSSSS
B15: il2ra_site1_2b5i_sap_9_mot_ee3637cf074d5336168aa4653724bfa7_0001_1_af2_000000268_0001_37_51_H_._HHH_b2_07145_0001_0000300031_0000001_0_0001_af2pred_dldesign_0_a … (protein)
chain: SSSSDVFEEIERLYNEALRLWREGKKEEAKKLLEKALELAKKAKDEKIAAELEKLLERLKSSSSS
B16: il2ra_site2_3nfp_normal_mot_HHH_b2_01406_000000272_0001_41_55_H_._a98de6a0dfc3acad88c522cc4a821374_0001_0001_0000300020_0000001_0 (protein)
chain: DEEVEELIRELLERNPHNLVAAALALLLEEAQKEGDEELLEELKKIVELFREDPHRAFQLVAELS
B17: il2ra_site2_2erj_normal_mot_HHH_b1_05204_000000055_0001_1_15_H_._HHH_b2_05523_0001_0000100001_0000001_0 (protein)
chain: SSSSDEEEEEAKRLLEELKRALEEGNFALFVEIAARITLIILELGDEELARLLDELFRELESSSS
B18: il2ra_site1_1z92_normal_mot_HHH_b1_00097_000000153_0001_1_19_H_._HHH_b1_06833_af2_0002_0000100002_0000001_0 (protein)
chain: SSSSDLRRLKFVNEVVVELAEEFGLSEEQDRELLRLAARLLNRGYSPEEIEELLRELAERLSSSS

These binders were tested against il2ra, P01589 (assay: yeast display titration).

Apparent Kd, inactive:
B1 no binding seen
B2 no binding seen
B3 no binding seen
B4 no binding seen
B5 no binding seen
B6 no binding seen
B7 no binding seen
B8 no binding seen
B9 no binding seen
B10 no binding seen
B11 no binding seen
B12 no binding seen
B13 no binding seen
B14 no binding seen
B15 no binding seen
B16 no binding seen
B17 no binding seen
B18 no binding seen

A stretch from further up:
Apparent Kd, inactive:
B11 no binding seen
B12 no binding seen
B13 no binding seen
B14 no binding seen
